{
  "source": "paper PMC7819943",
  "about": "“Rice protein-binding microarrays: a tool to detect cis-acting elements near promoter regions in rice”",
  "note": "The other results are listed elsewhere or left out.",
  "data": [
    {"biological_target": "T1, OsSMF1 (Oryza sativa, UniProt Q6ZLB0 1-436)", "T1 sequence": "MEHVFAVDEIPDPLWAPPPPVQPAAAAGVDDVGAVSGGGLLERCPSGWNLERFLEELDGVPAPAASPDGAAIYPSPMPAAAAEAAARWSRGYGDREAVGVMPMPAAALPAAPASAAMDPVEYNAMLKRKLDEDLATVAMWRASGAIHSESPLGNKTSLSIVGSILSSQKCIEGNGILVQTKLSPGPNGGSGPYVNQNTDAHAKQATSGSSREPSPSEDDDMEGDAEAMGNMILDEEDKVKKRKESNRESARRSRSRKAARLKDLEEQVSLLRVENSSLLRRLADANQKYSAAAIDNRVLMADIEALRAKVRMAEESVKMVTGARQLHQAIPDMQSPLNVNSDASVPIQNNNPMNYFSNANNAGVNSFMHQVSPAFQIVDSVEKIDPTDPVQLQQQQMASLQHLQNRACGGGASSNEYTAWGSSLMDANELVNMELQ", "experiment": "protein-binding microarray (RPBM); PBS, 2% BSA, 51.3 ng/ul salmon testes DNA, 50 uM zinc acetate, 200 nM TF, 25 C, 1 h; high values mean tight binding", "settings": "protein: recombinant; tags: N-terminal polyhistidine and DsRed monomer fusion (pET32a); chain copies: 2; label: CyDye5-dUTP incorporated in the synthesized complementary strand; 3' TTTTT single-stranded linker to array surface; dsDNA, one strand shown", "summary_of_the_method": "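A custom Agilent array was converted to double-stranded form by primer extension with Cy5-dUTP and blocked with 2% BSA. Protein at 200 nM in PBS with 2% BSA, salmon testes DNA and 50 µM zinc acetate was applied for 1 h at 25 °C, followed by washing. The proteins were polyhistidine–DsRed N-terminal fusions of transcription factors, expressed in E. coli BL21-CodonPlus and Ni–NTA-purified. The binding signal is per-feature fluorescence intensity (arbitrary units) from an Axon 4000B scanner.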", "values": [
      {"sequence": "ATACGGCAGGAAGGCGCTGATGACACTGCCGGTGACCGTGCGGAGTCACCTAGTGCAG", "binding signal": "4270 fluorescence intensity (a.u.)"},
      {"sequence": "CCAAACTAATTAAGACAGCCAACTCACCTCCATCATATAACGGAGTCACCTAGTGCAG", "binding signal": "65500 fluorescence intensity (a.u.)"},
      {"sequence": "GCGGCCGTCGTCGTGGTCGTCACCCATCGTGGAGGCGCCGCGGAGTCACCTAGTGCAG", "binding signal": "3160 fluorescence intensity (a.u.)"},
      {"sequence": "AGACAATCGCGAGGAAGCGTGTGCTGGCTCGTCCTGGATGCGGAGTCACCTAGTGCAG", "binding signal": "3210 fluorescence intensity (a.u.)"},
      {"sequence": "CGCGCGTCTCTTGCCACGACGGCCACCACTCACCGAAGAACGGAGTCACCTAGTGCAG", "binding signal": "5170 fluorescence intensity (a.u.)"},
      {"sequence": "TTAGGTTTGAATGATTCAGTTTGTTGAGTCAGATGTACAGCGGAGTCACCTAGTGCAG", "binding signal": "4930 fluorescence intensity (a.u.)"},
      {"sequence": "GAACTAGTTGCGGAAACGACGTGACATACCTAACAAAATTCGGAGTCACCTAGTGCAG", "binding signal": "3760 fluorescence intensity (a.u.)"},
      {"sequence": "AGCTAGTACCTCACATGCATTCATCTTGCTTGCAATCCGTCGGAGTCACCTAGTGCAG", "binding signal": "45100 fluorescence intensity (a.u.)"},
      {"sequence": "ATCGACGGTGAGATTAGATACTGCTACGTGGCGATCTAAGCGGAGTCACCTAGTGCAG", "binding signal": "3830 fluorescence intensity (a.u.)"},
      {"sequence": "AACATGCCATCCCTAACTTTATCACTTATTATTACTAAGTCGGAGTCACCTAGTGCAG", "binding signal": "4110 fluorescence intensity (a.u.)"},
      {"sequence": "AAACGCAAATACCTACAACACGTGTGCACTCACCTCTTATCGGAGTCACCTAGTGCAG", "binding signal": "6160 fluorescence intensity (a.u.)"},
      {"sequence": "AAATCAGAATGCCTATTTGTCAAATTCTTGATTTCGTGTTCGGAGTCACCTAGTGCAG", "binding signal": "3160 fluorescence intensity (a.u.)"},
      {"sequence": "TCGTGTGCCTTCTAGGGCGAGCCCTACCACGTGGCGCGGCCGGAGTCACCTAGTGCAG", "binding signal": "14500 fluorescence intensity (a.u.)"},
      {"sequence": "AATTCGCTACTCTGAAACTCTGAACAAAATTTCAGAGGGACGGAGTCACCTAGTGCAG", "binding signal": "12900 fluorescence intensity (a.u.)"},
      {"sequence": "GGCAGCTATAAATCAGGAGAGGCGCTGTGTGTTAGCTCGTCGGAGTCACCTAGTGCAG", "binding signal": "21100 fluorescence intensity (a.u.)"},
      {"sequence": "AATCCCGTGCCGTTGCCCTGATGACGGGTCGGCCCCACAACGGAGTCACCTAGTGCAG", "binding signal": "4870 fluorescence intensity (a.u.)"},
      {"sequence": "GCAAATATTTGTCAGATAAATTGCAATTTGACACGTACCTCGGAGTCACCTAGTGCAG", "binding signal": "7150 fluorescence intensity (a.u.)"},
      {"sequence": "CGCTGCCACGCACACACACATCGTCTCGGCGACACACGCGCGGAGTCACCTAGTGCAG", "binding signal": "4680 fluorescence intensity (a.u.)"},
      {"sequence": "ATATATTAATAGCATGACACATCAATGCTAATAAGAGTTCCGGAGTCACCTAGTGCAG", "binding signal": "3490 fluorescence intensity (a.u.)"},
      {"sequence": "GGCATGGGTATGGGTCATCACTACCCATGCCCGCTTTGCCCGGAGTCACCTAGTGCAG", "binding signal": "4410 fluorescence intensity (a.u.)"},
      {"sequence": "TCTTGATGAATTTCAACCAAAAGCACGTCACTATATGCAACGGAGTCACCTAGTGCAG", "binding signal": "4900 fluorescence intensity (a.u.)"},
      {"sequence": "CGTGGCCAATAAGCTCCCGTGAGCTGACGTCTCGTGCTCGCGGAGTCACCTAGTGCAG", "binding signal": "4700 fluorescence intensity (a.u.)"},
      {"sequence": "CGGCTACAGAGGCAGAAGTGCACGCTGACCTCAGGTCGTGCGGAGTCACCTAGTGCAG", "binding signal": "3180 fluorescence intensity (a.u.)"},
      {"sequence": "GGGCATGTAGCCTGGTGGTTGCAGTCACCTGAGTAGTACCCGGAGTCACCTAGTGCAG", "binding signal": "3530 fluorescence intensity (a.u.)"},
      {"sequence": "AGAGCTAGGTAACGTACGTGTACGTCAGAGAATCTTGTTCCGGAGTCACCTAGTGCAG", "binding signal": "5680 fluorescence intensity (a.u.)"},
      {"sequence": "CTTTGGGTTGTGAGTAAGGCTTGGTGGGGCCCAGCTCACGCGGAGTCACCTAGTGCAG", "binding signal": "3550 fluorescence intensity (a.u.)"},
      {"sequence": "GTAACTGGGTGTTACGTACGTTACGTTGCACCTATCGCTTCGGAGTCACCTAGTGCAG", "binding signal": "3230 fluorescence intensity (a.u.)"},
      {"sequence": "GCTCCTCACACTCCTGACACGACTGGGCTTTCCTGCAGATCGGAGTCACCTAGTGCAG", "binding signal": "5890 fluorescence intensity (a.u.)"},
      {"sequence": "CCACGGGACAGGAAATTACCGGCCCTATCCACATCACTTCCGGAGTCACCTAGTGCAG", "binding signal": "4110 fluorescence intensity (a.u.)"},
      {"sequence": "TCCTGTAATGGTACAAAAGTTCAGAGGTTGTTGCATAACGCGGAGTCACCTAGTGCAG", "binding signal": "29900 fluorescence intensity (a.u.)"},
      {"sequence": "GGTATATATAGGAGTACATGGGGAGGAGATAAGGAAGGATCGGAGTCACCTAGTGCAG", "binding signal": "3150 fluorescence intensity (a.u.)"},
      {"sequence": "CCGCTGTGTCGCTGCTGCTGCCACCGCAGCTGCTGCGCCGCGGAGTCACCTAGTGCAG", "binding signal": "4590 fluorescence intensity (a.u.)"},
      {"sequence": "TGTAGACCAGCTCCTCCATTCCTTCCACGTGCTTGCCCCTCGGAGTCACCTAGTGCAG", "binding signal": "7090 fluorescence intensity (a.u.)"},
      {"sequence": "CGCGGCGCGTGGACCAGAGTAGTGTAGTGGAGTACCCAACCGGAGTCACCTAGTGCAG", "binding signal": "3970 fluorescence intensity (a.u.)"},
      {"sequence": "CCTGTGGCTTTATATAAACACCATGGTTGTCAGCAGTTCACGGAGTCACCTAGTGCAG", "binding signal": "4170 fluorescence intensity (a.u.)"},
      {"sequence": "ACAAATTATGATGTTTTCTAATGAACATCATCGCCTGGTTCGGAGTCACCTAGTGCAG", "binding signal": "3360 fluorescence intensity (a.u.)"},
      {"sequence": "CCTAGCTAAAGATCCGTGAAGTCGTGCTAAATGCTAGTACCGGAGTCACCTAGTGCAG", "binding signal": "3740 fluorescence intensity (a.u.)"},
      {"sequence": "TACGTGTGTTGATTTCCGTGACATATGCATAAATTTCTTTCGGAGTCACCTAGTGCAG", "binding signal": "3530 fluorescence intensity (a.u.)"},
      {"sequence": "GCCATCCACACCTTTCCCCGTCGGCGCTTAAATCCTCCCACGGAGTCACCTAGTGCAG", "binding signal": "3320 fluorescence intensity (a.u.)"},
      {"sequence": "GAAAAGCTGACTAATCTGACTTGCCTAAGAAACGCATTAGCGGAGTCACCTAGTGCAG", "binding signal": "3590 fluorescence intensity (a.u.)"},
      {"sequence": "AGTTTTGTGGATGGGTATAATGACGTTATAACAACGTTTTCGGAGTCACCTAGTGCAG", "binding signal": "3540 fluorescence intensity (a.u.)"},
      {"sequence": "TAGCTCGCTTGTCTACGTGCACCGAGTCCACGAGCACCCCCGGAGTCACCTAGTGCAG", "binding signal": "4180 fluorescence intensity (a.u.)"},
      {"sequence": "CGCTGAAATCCGCCGTGCACGTACACCGTCTTGTCGATCACGGAGTCACCTAGTGCAG", "binding signal": "3460 fluorescence intensity (a.u.)"},
      {"sequence": "CGGCGTTGCGCGTGCGCCACCTGTTATCCACCACCACTCCCGGAGTCACCTAGTGCAG", "binding signal": "3310 fluorescence intensity (a.u.)"},
      {"sequence": "AGAGTAGGATGACCTGGACAGGCTGACACGTGGGGCCCTTCGGAGTCACCTAGTGCAG", "binding signal": "10700 fluorescence intensity (a.u.)"},
      {"sequence": "ACCAACGGTACGCACGCGGAGAGCCCCGCGCGTAATTTGTCGGAGTCACCTAGTGCAG", "binding signal": "3790 fluorescence intensity (a.u.)"},
      {"sequence": "GCCACTCTCGTAATCTTACATAGTCATCATTATTCACACGCGGAGTCACCTAGTGCAG", "binding signal": "5470 fluorescence intensity (a.u.)"},
      {"sequence": "GCCCGCAGCTAAACCAGGTGACGTCGAACCCACACTCACCCGGAGTCACCTAGTGCAG", "binding signal": "4800 fluorescence intensity (a.u.)"},
      {"sequence": "ACGGCTGAGAGTCACCCTGATATTTGAGTCCCGTTCGATCCGGAGTCACCTAGTGCAG", "binding signal": "3490 fluorescence intensity (a.u.)"},
      {"sequence": "CCCCGTCCACGTCCACCCCTCGCCGTCGTCAAAGCGCGGCCGGAGTCACCTAGTGCAG", "binding signal": "6860 fluorescence intensity (a.u.)"},
      {"sequence": "ATCTCACACGTTGCTCATCATGTCGTCACACTCTCCAGCTCGGAGTCACCTAGTGCAG", "binding signal": "6030 fluorescence intensity (a.u.)"},
      {"sequence": "GGGAGGGGAGTGAGAATGACATGTGGGACTTACGTGGGTCCGGAGTCACCTAGTGCAG", "binding signal": "5280 fluorescence intensity (a.u.)"},
      {"sequence": "CCGGCGCGGTGAAGGAGACGTGGCCGGTGGCTGGGCAGCGCGGAGTCACCTAGTGCAG", "binding signal": "3220 fluorescence intensity (a.u.)"},
      {"sequence": "GACAAACTGACACGGTGACAGTATAAGGGGCTCGCATCCGCGGAGTCACCTAGTGCAG", "binding signal": "3590 fluorescence intensity (a.u.)"}
    ]}
  ]
}
